Measured values: publication PMC7132976
Results are given in words; binding and its absence hold for the method and conditions named. Binding seen in cells or lysates may run through a third protein. Some results given as binding are weak or reduced against the parent protein; the word gives no strength.

Sequences of proteins named here, by UniProt entry; tags and fusion partners are left off.
UniProt Q14999: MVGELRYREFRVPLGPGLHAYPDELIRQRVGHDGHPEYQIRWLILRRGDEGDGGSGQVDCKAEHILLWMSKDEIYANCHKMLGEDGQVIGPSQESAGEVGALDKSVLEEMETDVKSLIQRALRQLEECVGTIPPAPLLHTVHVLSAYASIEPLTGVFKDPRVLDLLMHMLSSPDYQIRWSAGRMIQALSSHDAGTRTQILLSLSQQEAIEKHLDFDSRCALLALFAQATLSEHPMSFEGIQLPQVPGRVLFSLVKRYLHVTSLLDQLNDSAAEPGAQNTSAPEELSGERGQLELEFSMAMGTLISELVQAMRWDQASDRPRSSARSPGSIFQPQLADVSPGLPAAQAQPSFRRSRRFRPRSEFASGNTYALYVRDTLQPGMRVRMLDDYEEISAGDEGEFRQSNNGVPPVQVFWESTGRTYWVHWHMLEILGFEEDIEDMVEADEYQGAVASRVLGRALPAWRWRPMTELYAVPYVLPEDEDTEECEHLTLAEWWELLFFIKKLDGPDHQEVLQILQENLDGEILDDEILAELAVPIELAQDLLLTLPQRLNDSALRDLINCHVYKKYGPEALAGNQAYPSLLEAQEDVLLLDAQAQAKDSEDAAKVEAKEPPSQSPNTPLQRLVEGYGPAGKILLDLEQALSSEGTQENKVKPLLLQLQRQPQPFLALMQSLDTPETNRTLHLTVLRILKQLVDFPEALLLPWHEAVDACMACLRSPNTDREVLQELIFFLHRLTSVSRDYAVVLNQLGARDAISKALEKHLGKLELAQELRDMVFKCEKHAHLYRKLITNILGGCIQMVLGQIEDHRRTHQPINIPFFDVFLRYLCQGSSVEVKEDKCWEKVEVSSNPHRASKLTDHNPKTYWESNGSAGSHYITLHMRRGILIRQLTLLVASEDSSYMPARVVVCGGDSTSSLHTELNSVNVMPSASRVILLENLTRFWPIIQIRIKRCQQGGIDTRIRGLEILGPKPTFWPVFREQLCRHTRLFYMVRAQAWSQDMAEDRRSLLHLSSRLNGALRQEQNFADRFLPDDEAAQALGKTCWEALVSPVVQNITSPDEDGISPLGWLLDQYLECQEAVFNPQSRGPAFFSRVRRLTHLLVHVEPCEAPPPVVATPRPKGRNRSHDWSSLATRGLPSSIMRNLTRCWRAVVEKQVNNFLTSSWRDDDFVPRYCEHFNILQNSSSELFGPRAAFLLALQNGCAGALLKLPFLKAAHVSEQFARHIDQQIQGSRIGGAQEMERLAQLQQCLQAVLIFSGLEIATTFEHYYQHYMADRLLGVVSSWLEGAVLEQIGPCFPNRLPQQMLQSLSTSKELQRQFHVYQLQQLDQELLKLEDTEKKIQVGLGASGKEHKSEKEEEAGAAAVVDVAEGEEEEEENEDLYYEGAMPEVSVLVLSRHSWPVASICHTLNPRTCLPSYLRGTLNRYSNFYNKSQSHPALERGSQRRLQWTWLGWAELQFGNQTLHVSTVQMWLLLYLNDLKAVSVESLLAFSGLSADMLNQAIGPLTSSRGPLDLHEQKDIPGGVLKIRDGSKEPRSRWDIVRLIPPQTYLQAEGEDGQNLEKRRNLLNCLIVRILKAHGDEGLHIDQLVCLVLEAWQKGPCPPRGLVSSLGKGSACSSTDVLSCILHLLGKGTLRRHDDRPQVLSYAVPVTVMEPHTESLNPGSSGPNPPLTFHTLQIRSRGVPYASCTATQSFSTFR

Target: T1, MST1 (mammalian sterile 20 like kinase 1) (human (endogenous in U87MG, U251 and GSC267)) (UniProt Q13043)
T1 sequence: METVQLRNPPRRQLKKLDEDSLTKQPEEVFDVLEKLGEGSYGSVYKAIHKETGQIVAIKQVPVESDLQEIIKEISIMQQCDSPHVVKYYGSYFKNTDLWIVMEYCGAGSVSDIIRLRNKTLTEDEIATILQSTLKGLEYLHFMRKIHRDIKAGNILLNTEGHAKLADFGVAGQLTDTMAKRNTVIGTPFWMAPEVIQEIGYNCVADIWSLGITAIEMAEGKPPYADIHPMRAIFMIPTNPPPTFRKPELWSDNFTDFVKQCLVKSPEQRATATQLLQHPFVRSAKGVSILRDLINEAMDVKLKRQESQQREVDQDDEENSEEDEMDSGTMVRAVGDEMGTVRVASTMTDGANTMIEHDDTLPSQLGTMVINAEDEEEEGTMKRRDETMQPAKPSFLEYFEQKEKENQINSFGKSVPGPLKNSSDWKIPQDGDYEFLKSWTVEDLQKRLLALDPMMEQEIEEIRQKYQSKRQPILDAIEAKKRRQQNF
Assay: co-IP; endogenous proteins; lysates of U87MG, U251 and GSC267 cells (transfected with NC or si-CUL7) in IP buffer (Pierce) with protease inhibitors; 5 ug anti-CUL7 or anti-MST1 antibody or IgG and Protein A/G agarose beads overnight at 4 °C; western blot

Substance: Cullin-7 (CUL7) (from UniProt Q14999 1-1698)
- binding: binds
